# Assay results taken from paper PMC5886308.
# By UniProt entry, the sequences of proteins in these tests, tags left out. Where a name states a change or a piece, a line headed by the entry shows the natural chain unless it says otherwise. Residues count along the entry.
# UniProt Q8TAB3: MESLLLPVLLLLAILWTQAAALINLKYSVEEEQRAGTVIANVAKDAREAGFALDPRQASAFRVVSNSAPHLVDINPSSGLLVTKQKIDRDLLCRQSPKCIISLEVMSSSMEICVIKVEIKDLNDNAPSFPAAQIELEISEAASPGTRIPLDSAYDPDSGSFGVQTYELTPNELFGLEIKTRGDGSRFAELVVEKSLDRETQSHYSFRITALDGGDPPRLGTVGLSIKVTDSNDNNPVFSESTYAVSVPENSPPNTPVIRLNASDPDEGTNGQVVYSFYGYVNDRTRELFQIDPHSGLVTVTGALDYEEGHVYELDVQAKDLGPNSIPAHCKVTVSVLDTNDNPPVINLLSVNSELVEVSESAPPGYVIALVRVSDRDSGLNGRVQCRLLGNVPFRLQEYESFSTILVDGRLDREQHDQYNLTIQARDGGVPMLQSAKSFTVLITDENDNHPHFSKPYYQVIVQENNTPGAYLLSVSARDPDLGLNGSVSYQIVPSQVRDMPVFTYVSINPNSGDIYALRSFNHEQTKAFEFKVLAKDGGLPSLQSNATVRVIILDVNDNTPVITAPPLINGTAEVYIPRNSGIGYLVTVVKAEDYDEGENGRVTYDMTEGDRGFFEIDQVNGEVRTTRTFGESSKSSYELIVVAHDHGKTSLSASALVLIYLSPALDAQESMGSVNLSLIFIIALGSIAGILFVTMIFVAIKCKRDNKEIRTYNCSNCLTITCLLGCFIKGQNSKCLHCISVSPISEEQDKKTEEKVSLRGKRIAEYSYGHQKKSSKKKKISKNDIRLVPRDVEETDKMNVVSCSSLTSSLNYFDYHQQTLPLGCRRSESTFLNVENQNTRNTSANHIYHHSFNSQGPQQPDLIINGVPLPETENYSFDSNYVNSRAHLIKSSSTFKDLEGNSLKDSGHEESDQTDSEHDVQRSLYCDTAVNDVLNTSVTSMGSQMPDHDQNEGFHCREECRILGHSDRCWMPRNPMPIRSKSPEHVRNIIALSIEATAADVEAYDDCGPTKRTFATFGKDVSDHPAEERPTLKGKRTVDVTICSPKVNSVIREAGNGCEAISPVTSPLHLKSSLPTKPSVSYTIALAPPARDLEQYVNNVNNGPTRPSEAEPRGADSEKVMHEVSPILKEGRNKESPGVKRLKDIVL
# UniProt P62813, residues 28-455: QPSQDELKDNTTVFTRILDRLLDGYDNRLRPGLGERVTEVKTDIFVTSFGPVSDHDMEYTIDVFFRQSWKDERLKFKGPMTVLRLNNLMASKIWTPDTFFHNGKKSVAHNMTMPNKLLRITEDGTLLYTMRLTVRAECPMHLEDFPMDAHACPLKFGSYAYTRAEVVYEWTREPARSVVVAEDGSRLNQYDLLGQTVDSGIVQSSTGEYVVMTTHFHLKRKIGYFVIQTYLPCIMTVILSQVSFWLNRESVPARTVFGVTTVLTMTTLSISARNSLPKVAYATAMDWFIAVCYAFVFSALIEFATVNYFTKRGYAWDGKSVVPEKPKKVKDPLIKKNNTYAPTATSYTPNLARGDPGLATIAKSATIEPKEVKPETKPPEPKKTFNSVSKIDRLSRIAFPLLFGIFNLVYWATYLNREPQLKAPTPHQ
# UniProt P18508, residues 39-466: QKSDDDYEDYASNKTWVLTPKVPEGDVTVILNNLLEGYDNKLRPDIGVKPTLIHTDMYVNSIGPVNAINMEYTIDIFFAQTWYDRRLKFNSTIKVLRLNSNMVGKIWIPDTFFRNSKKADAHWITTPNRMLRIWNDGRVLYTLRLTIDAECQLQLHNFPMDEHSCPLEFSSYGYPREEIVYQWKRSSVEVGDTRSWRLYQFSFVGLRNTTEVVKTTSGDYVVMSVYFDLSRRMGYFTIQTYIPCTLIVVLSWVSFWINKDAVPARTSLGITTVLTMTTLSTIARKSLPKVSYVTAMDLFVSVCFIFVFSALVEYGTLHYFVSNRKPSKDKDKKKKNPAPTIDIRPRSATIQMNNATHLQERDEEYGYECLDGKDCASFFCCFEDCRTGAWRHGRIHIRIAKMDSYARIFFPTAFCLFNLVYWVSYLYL
# UniProt P20236, residues 29-493: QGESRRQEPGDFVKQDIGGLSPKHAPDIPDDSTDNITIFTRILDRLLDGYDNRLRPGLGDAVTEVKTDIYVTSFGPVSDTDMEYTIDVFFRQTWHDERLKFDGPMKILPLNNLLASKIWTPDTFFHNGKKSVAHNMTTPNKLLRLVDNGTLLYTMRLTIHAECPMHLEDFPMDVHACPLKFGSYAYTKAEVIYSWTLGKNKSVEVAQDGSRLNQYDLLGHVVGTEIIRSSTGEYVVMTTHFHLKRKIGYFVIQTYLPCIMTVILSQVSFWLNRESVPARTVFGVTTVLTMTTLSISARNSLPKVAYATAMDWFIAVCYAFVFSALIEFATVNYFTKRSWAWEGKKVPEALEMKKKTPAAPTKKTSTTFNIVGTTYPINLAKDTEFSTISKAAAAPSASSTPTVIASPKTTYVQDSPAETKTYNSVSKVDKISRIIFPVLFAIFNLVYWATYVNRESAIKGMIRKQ
# UniProt P63079, residues 26-473: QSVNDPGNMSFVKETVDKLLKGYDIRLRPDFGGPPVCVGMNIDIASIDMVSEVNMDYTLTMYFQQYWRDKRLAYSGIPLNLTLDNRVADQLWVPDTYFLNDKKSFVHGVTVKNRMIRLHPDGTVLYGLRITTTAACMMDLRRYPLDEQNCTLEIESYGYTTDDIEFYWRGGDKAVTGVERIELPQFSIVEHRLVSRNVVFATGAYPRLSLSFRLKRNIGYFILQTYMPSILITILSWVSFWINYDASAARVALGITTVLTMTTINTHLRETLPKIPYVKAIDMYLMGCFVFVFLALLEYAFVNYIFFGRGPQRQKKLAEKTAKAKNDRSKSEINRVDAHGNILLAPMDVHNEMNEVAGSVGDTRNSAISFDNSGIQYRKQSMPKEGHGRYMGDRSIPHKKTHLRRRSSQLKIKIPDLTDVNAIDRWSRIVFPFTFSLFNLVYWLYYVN
# Tests used:
# [1] = molecular target: PCDH19 GST-CT (entire intracellular C-terminal tail) (UniProt Q8TAB3); test: pull-down; GST fusion proteins immobilized on glutathione-Sepharose 4B beads, incubated overnight at 4°C with rat brain (cortex plus hippocampus) homogenate (modified RIPA buffer); western blot; only the target purified
# [2] = molecular target: PCDH19 GST-CT (entire intracellular C-terminal tail) (UniProt Q8TAB3); test: pull-down; GST fusion proteins immobilized on glutathione-Sepharose 4B beads, incubated overnight at 4°C with lysates of transfected HEK293T cells (modified RIPA buffer); western blot; only the target purified
# [3] = molecular target: PCDH19 GST-CT1 (proximal region of the C-terminal tail) (UniProt Q8TAB3); test: as above
# [4] = molecular target: PCDH19 GST-CT1 (proximal region of the C-terminal tail) (UniProt Q8TAB3); test: pull-down; GST fusion proteins immobilized on glutathione-Sepharose 4B beads, incubated overnight at 4°C with rat brain (cortex plus hippocampus) homogenate (modified RIPA buffer); western blot; only the target purified
# [5] = molecular target: T1, GABAAR alpha 1 GST-TM-A1 (amino acids 334-343) (UniProt P62813); test: as above
# T1 sequence: NYFTKRGYAW
binding [1],Substance,other results
binds,endogenous GABAAR gamma 2 subunit (rat) (from UniProt P18508 39-466) (receptor),–
binds,endogenous GABAAR alpha 3 subunit (rat) (from UniProt P20236 29-493) (receptor),–
–,GABAAR myc-alpha 1 subunit (from UniProt P62813 28-455) (receptor),binding [2]: binds; binding [3]: binds
binds,endogenous GABAAR alpha 1 subunit (rat) (from UniProt P62813 28-455) (receptor),binding [4]: binds
binds,endogenous GABAAR beta 3 subunit (rat) (from UniProt P63079 26-473) (receptor),–
–,endogenous PCDH19 (rat),binding [5]: binds

# Results are given in words; binding and its absence hold for the method and conditions named. In cells and extracts the contact can be indirect. Binding can be weak; no strength is given. For some assays here: Where a sequence is shown, tags or fusion partners need not be part of it.
